One assay concerns the target JAK2 (Homo sapiens, UniProt O60674). The assay can be described thus: In vitro activity test of JAK2 kinase (Caliper EZ Reader conversion assay). It counts as biochemical. The note with it: read-out: JAK2 IC50; enzyme activity, 10 concentrations from 1000 nM, 3-fold dilution.
The target of the next assay is JAK1 (Homo sapiens, UniProt P23458). The assay can be described thus: In vitro activity test of JAK1 kinase (Caliper EZ Reader conversion assay). The note with it: read-out: JAK1 IC50; enzyme activity, 10 concentrations from 1000 nM, 3-fold dilution.

Chains of the proteins cited; added tags and fusions are not shown.
UniProt O60674, whole entry: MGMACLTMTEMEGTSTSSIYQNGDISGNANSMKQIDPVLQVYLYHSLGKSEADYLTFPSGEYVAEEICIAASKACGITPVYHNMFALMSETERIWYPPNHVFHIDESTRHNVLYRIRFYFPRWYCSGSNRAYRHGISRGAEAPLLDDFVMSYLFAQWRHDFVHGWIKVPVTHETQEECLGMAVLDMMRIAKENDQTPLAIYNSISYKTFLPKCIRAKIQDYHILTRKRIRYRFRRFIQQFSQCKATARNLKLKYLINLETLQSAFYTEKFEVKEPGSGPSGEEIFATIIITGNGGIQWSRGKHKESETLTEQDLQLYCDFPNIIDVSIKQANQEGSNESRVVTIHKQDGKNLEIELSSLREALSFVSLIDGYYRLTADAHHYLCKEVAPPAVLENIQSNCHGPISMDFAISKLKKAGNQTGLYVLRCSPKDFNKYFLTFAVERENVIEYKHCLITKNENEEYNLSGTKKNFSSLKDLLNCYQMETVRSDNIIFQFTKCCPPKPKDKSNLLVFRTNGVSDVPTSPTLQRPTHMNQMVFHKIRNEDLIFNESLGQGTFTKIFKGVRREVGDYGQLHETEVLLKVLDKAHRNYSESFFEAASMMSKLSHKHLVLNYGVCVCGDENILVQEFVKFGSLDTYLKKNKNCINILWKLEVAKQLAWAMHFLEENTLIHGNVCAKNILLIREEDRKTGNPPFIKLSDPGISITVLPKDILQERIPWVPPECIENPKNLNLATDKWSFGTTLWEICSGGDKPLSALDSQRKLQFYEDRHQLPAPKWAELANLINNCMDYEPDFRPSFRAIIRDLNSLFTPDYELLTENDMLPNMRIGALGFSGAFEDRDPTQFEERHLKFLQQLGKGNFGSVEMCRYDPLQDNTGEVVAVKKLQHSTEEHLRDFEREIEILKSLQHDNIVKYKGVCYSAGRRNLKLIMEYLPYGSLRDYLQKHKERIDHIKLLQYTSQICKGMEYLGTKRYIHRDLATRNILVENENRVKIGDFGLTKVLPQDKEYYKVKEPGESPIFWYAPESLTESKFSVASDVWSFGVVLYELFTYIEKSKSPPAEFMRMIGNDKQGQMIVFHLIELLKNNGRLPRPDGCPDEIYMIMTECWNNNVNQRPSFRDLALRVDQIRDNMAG
UniProt P23458, whole entry: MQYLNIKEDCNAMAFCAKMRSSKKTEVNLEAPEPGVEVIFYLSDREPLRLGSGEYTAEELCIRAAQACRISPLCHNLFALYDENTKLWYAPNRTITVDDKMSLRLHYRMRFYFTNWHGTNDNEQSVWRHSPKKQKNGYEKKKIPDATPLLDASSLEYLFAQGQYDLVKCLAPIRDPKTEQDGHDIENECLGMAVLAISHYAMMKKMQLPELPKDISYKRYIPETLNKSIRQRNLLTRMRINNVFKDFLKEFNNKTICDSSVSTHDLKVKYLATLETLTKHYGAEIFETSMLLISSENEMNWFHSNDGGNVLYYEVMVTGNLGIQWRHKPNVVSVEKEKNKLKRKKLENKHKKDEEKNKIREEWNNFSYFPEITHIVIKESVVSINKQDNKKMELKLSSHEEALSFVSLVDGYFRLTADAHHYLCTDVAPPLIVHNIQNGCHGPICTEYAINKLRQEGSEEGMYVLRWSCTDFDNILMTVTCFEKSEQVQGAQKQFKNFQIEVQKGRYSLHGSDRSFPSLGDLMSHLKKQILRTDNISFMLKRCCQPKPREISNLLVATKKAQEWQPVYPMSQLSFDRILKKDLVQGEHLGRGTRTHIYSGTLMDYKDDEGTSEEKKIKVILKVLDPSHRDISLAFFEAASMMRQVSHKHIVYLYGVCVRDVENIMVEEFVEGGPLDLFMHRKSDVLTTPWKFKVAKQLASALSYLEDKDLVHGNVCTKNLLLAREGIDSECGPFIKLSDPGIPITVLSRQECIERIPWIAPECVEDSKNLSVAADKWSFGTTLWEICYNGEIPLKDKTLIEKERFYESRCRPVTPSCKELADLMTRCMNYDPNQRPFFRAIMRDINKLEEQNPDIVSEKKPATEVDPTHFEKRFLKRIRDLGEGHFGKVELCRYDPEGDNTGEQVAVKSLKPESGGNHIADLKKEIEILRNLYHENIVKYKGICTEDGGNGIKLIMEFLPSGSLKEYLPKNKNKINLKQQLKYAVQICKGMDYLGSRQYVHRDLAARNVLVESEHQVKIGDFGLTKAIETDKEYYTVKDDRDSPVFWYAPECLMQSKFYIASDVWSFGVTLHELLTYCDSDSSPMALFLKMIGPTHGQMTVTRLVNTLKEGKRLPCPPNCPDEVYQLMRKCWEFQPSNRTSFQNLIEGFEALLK

Structures were worked out from names or drawings and are uncertain.

As to `N#CC1CCC(n2c(-c3ccc(F)c(F)c3)nc3cnc4[nH]ccc4c32)CC1` (stereo not shown), the IC50 on JAK2 was in the range of 0.01 to 0.1 µM; on JAK1, 0.1 to 1 µM.

Consider `C[C@@H](O)c1nc2cnc3[nH]ccc3c2n1[C@@H]1CN(CCCC(F)(F)F)C[C@@H]1F`, for which the half-inhibitory concentration (IC50) is 0.1 to 1 µM at JAK2 and below 0.01 µM at JAK1.

A word on the IC50: it is the midpoint of a concentration-inhibition curve.

For the origin of these results see patent US20240383898A1.
